Record: PubChem BioAssay AID504764 (Drosophila RNAi Screening Center, 2011)

Screen: 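Genes whose knock-down alters Notch-dependent transcription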 (primary screen)
Cell system: Drosophila Kc167 cells
Reagents: long dsRNA against Drosophila genes
Time to read-out: about 5 days (4 days dsRNA, then 24 h after transfection)
Treatment: transfection of constitutively active membrane-tethered Notch lacking the extracellular domain, read 24 h later
Measurement: 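Firefly luciferase from an E(spl)m3 reporter with active Notch, plus control-promoter and uninduced reporter wells for normalisation; unnormalised counts, duplicate wells a and b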
Reading the numbers: induced reporter light, run 1, well a and induced reporter light, run 1, well b: higher = more light from the Notch target reporter with active Notch; control promoter light, run 1, well a and control promoter light, run 1, well b: higher = more light from the viral control promoter (cell number, transfection, viability); uninduced reporter light, run 1, well a: higher = more light from the Notch target reporter without active Notch
Call rule: 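Wells with low control signal or poorly matching duplicates excluded; duplicates averaged; per source plate, z beyond ±2 for induced/control log2 ratio or beyond ±1.8 for induced/uninduced marks a hit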
Meaning of the calls: active = modifier hit (raised or lowered Notch signal); inactive = not a hit
The deposit covers about 22,000 reagents; shown is an unselected part of those with a known target gene and a result. Over the whole deposit, 403 (1.9%) got an active call. 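Unnormalised raw counts per well; ratio z-scores behind the hit calls and whether each hit raises or lowers signal are not deposited.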 A plus sign joins genes that one reagent is predicted to hit. No sequences are given here. Not given: the amount of reagent.

no.	target	amplicon	induced reporter light, run 1, well a	induced reporter light, run 1, well b	control promoter light, run 1, well a	control promoter light, run 1, well b	uninduced reporter light, run 1, well a	Outcome
1	boss	DRSC16916	1.51e5	1.56e5	1.70e5	1.74e5	11620	inactive
2	Cftr	DRSC15872	1.57e5	1.72e5	2.21e5	2.43e5	14765	inactive
3	Datp	DRSC01102	1.03e5	1.24e5	1.40e5	1.33e5	8400	inactive
4	CG30275	DRSC04163	1.98e5	2.13e5	2.14e5	1.98e5	15978	inactive
5	hfw	DRSC18506	1.31e5	94960	2.07e5	2.13e5	7770	inactive
6	CG3918	DRSC18331	11390	12095	18295	17900	2655	inactive
7	CG30375	DRSC06834	1.80e5	1.51e5	1.63e5	1.75e5	12950	inactive
8	kl-3 (retired record)	DRSC20730	2.12e5	2.06e5	3.47e5	3.72e5	16225	inactive
9	kl-3 (retired record)	DRSC20891	1.04e5	81910	1.08e5	1.02e5	9685	inactive
10	kl-3 (retired record)	DRSC20934	3.36e5	3.14e5	5.79e5	4.93e5	21795	inactive
11	Hsp70Bb + Hsp70Bbb	DRSC15885	83365	1.13e5	85440	68405	8320	inactive
12	Tret1-1	DRSC07046	1.05e5	1.12e5	1.42e5	1.40e5	11828	inactive
13	Tret1-1	DRSC07048	1.09e5	1.14e5	1.66e5	1.55e5	10625	inactive
14	CG32572	DRSC19525	80815	98240	88685	64145	9235	inactive
15	CG32572	DRSC19526	97015	81965	92460	78575	11015	inactive
16	CG14505	DRSC06476	1.33e5	96695	1.54e5	1.52e5	10415	inactive
17	uncNacbeta	DRSC00326	1.06e5	1.07e5	1.13e5	72300	7835	inactive
18	CG12133	DRSC06108	2.54e5	2.30e5	2.56e5	2.60e5	19680	inactive
19	CG34136	DRSC01833	1.11e5	98525	94060	1.16e5	11082	inactive
20	IKKbeta	DRSC16714	1.87e5	1.95e5	2.38e5	3.34e5	19285	inactive
21	Bbd	DRSC06709	1.01e5	74925	1.27e5	1.35e5	8155	inactive
22	SmB	DRSC03437	49015	37475	38795	35905	2975	inactive
23	GstE11	DRSC06926	55055	48325	71220	67045	4025	active
24	Pdi	DRSC11250	1.69e5	1.44e5	2.27e5	1.93e5	5550	inactive
25	Pof	DRSC04405	2.29e5	1.84e5	1.74e5	1.72e5	17075	inactive
26	CG13739	DRSC06410	17635	15450	12460	11600	3920	inactive
27	Vang	DRSC07570	1.37e5	1.92e5	1.58e5	1.59e5	15985	inactive
28	b6	DRSC18740	1.01e5	1.02e5	2.09e5	1.62e5	9465	inactive
29	trh	DRSC08355	1.27e5	1.17e5	2.91e5	2.28e5	6770	inactive
30	trh	DRSC08739	1.17e5	1.31e5	2.26e5	2.10e5	9095	inactive
31	PIG-A	DRSC06982	89865	1.02e5	1.88e5	1.98e5	8500	inactive
32	CG32264	DRSC08061	7545	7680	9165	10110	5055	inactive
33	CG32264	DRSC08167	1.26e5	1.50e5	1.22e5	1.33e5	4940	inactive
34	CG32264	DRSC08169	1.55e5	1.55e5	1.03e5	41655	12350	inactive
35	CG32264	DRSC08285	1.22e5	1.59e5	1.83e5	1.64e5	6030	inactive
36	CG32264	DRSC08437	13830	15100	21945	21030	3350	inactive

Active calls, among the entries above:
target	amplicon	induced reporter light, run 1, well a	induced reporter light, run 1, well b	control promoter light, run 1, well a	control promoter light, run 1, well b	uninduced reporter light, run 1, well a	Outcome
GstE11	DRSC06926	55055	48325	71220	67045	4025	active
